The target in the experiment is FLAG-tagged H4G (human) (UniProt Q99525). As to the kind of experiment: co-IP.

Amino acid sequences for entries named in this document (tags omitted). A change or cut given only in a name is not applied to a line headed by its entry.
UniProt Q99525: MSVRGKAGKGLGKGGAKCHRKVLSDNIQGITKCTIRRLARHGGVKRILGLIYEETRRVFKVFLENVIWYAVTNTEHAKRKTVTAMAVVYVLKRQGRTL
UniProt P06748: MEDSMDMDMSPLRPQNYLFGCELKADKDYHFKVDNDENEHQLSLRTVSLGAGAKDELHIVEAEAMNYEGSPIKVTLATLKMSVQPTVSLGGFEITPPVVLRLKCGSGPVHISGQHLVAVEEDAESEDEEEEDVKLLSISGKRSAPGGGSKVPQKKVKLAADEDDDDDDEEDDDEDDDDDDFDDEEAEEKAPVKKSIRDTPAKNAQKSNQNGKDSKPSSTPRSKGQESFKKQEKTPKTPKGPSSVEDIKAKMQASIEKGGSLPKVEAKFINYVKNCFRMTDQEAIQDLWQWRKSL

Results are given in words; binding and its absence hold for the method and conditions named. In cells and extracts the contact can be indirect. Some results given as binding are weak or reduced against the parent protein; the word gives no strength.

As for “NPM1 (nucleophosmin/B23) (from UniProt P06748 1-294)”, the binding entry is “binds”.

Source of the values: doi:10.1101/325811.
